Laboratory results from publication PMC4942255, “MutSα maintains the mismatch repair capability by inhibiting PCNA unloading”.
These are yes or no findings as the source states them, for the method shown. Some binding calls cover weakened binding; strength is not graded here. Sequences can lack the tags named with a protein.

Amino acid sequences for entries named in this document (tags omitted).
UniProt A0A1B4WRB1: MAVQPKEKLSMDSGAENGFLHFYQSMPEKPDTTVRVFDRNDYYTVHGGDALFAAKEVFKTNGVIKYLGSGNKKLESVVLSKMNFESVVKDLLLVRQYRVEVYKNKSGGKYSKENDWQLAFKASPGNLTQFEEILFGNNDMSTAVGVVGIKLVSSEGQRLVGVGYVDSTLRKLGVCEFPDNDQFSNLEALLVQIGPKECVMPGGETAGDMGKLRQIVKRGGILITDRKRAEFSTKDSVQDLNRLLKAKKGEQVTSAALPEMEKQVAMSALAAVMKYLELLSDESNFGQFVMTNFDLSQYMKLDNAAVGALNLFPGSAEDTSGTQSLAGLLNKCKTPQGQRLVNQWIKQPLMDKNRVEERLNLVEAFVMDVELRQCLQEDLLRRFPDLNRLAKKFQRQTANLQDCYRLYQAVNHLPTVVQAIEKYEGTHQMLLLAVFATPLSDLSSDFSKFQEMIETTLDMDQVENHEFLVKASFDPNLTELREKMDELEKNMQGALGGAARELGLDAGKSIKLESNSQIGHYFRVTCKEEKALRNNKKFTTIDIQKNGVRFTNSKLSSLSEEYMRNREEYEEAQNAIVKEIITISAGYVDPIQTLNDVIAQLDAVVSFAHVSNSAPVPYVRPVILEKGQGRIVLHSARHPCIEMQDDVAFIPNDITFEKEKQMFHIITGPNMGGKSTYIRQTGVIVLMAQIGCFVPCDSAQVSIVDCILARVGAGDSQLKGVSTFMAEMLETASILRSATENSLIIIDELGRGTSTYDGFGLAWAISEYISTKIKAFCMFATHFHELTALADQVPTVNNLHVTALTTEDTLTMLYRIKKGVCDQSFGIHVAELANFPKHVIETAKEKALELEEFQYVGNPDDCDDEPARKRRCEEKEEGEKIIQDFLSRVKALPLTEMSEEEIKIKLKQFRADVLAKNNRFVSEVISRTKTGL

Columns and labels:
[1] = target: T1, Xenopus laevis Msh6 with C-terminal FLAG tag, wild type (Xenopus laevis); experiment: co-purification (FLAG-M2 affinity, MonoQ, Superdex 200); xMsh2 and xMsh6-FLAG co-expressed in Sf9 cells; cleared lysate in buffer S (25 mM Tris-HCl pH 7.4, 250 mM NaCl) passed over DEAE Sepharose and FLAG-M2 agarose, eluted with FLAG peptide, then MonoQ and Superdex 200; fractions of ~2.5 x 10^5 pooled
T1 sequence: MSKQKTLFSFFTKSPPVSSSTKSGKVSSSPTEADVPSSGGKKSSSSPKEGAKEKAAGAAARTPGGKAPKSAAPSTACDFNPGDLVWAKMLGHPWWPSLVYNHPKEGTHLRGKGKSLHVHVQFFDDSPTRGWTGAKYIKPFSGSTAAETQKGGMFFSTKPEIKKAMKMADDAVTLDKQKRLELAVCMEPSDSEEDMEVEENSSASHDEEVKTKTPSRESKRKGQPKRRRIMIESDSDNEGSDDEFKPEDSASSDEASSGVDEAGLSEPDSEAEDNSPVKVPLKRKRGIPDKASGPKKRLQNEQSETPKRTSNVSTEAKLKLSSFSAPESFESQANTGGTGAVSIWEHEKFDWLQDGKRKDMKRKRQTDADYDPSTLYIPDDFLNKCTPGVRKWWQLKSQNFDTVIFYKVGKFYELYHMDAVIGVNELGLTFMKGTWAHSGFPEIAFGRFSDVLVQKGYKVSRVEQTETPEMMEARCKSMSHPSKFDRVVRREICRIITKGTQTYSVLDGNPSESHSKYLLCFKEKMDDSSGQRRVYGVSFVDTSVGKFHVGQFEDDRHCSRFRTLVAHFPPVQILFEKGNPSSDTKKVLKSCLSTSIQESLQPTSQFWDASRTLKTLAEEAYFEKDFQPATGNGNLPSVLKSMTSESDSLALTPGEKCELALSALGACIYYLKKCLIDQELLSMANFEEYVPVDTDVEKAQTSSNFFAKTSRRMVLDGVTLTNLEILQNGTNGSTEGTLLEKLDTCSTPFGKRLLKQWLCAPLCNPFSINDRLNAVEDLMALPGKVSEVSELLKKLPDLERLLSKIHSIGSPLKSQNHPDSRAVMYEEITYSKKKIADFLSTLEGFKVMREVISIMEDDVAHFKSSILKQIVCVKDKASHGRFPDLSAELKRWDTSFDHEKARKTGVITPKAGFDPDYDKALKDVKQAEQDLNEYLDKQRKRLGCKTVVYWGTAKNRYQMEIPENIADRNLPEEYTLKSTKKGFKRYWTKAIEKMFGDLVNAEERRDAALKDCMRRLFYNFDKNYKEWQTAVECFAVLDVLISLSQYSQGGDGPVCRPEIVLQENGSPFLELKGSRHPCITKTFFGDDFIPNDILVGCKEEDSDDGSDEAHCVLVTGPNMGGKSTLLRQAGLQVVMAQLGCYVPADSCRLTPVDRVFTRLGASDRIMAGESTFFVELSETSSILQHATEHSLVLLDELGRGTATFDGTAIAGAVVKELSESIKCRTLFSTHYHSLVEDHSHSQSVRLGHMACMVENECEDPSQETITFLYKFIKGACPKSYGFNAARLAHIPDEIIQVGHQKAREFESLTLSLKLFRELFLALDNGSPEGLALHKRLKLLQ

[2] = target: T2, Xenopus laevis Msh6 N-terminal deletion mutant (Δ1–323) with C-terminal FLAG tag (Xenopus laevis); experiment: as above
T2 sequence: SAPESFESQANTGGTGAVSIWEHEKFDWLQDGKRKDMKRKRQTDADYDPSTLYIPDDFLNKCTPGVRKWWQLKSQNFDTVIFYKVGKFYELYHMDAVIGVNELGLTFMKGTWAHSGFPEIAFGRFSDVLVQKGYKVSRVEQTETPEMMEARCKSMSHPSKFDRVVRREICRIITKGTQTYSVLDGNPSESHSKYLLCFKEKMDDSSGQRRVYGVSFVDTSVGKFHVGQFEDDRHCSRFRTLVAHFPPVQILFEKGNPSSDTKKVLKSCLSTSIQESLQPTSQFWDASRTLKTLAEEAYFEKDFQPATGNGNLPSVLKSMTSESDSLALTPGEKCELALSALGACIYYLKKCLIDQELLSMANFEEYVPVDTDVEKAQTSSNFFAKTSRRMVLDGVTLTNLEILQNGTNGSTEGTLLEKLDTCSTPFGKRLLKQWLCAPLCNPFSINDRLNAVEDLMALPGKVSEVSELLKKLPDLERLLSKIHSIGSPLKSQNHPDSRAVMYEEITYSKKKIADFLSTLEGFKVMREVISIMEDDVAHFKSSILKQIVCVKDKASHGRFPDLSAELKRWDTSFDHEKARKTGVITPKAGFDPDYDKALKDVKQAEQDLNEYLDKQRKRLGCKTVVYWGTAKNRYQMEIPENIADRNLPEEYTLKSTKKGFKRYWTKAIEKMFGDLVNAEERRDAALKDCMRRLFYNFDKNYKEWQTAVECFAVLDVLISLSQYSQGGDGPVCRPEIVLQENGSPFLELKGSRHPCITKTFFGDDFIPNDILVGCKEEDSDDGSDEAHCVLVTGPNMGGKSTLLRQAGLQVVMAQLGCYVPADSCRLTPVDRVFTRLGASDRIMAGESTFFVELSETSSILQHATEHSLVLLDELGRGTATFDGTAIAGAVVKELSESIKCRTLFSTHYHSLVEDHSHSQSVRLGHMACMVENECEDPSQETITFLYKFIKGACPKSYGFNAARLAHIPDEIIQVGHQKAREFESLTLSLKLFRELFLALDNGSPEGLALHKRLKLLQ

For “Xenopus laevis Msh2 (from UniProt A0A1B4WRB1 1-932)”, which binding [1] is on record?
Its binding is “binds”.

And the binding [2]?
Its binding is “binds”.
